{"source": "paper PMC9559323", "binders": {"B1": {"name": "Rab3A (protein, UniProt P20336 1-220)", "chain": "MASATDSRYGQKESSDQNFDYMFKILIIGNSSVGKTSFLFRYADDSFTPAFVSTVGIDFKVKTIYRNDKRIKLQIWDTAGQERYRTITTAYYRGAMGFILMYDITNEESFNAVQDWSTQIKTYSWDNAQVLLVGNKCDMEDERVVSSERGRQLADHLGFEFFEASAKDNINVKQTFERLVDVICEKMSESLDTADPAVTGAKQGPQLSDQQVPPHQDCAC"}}, "target": "translocated EspH_(Δ130-168) (SBP-tagged) (enteropathogenic Escherichia coli (EPEC))", "assay": "affinity purification with mass spectrometry; HeLa cells infected 90 min at 37°C with EPEC strains; SBP-tagged translocated EspH precipitated from lysates (50 mM Tris pH 7.4, 150 mM NaCl, 0.5% NP-40) with StAv agarose beads, 4 hrs at 4°C; on-bead digestion, LC-MS/MS, label-free quantification", "note": "No constants are given. Whether binding was seen depends on the method and setting. In cells and extracts the contact can be indirect. Here binding means that the protein was enriched with, or labelled near, the bait; the list need not be complete.", "data": [{"binder": "B1", "values": [{"measurement": "binding", "value": "binds"}]}]}
